Laboratory results as given in patent US11000586B2, “Adjuvant composition, vaccine composition containing the same, and method for producing both of them” (TERUMO KABUSHIKI KAISHA, priority 2013, dated 2021).
For at least one compound, name, drawing or mass did not settle the structure.

Test: Release test: measurement of leakage
Details: Table 2, pH-sensitive substance alone
Description: The term “Membrane disruptive function” denotes the function to bring about release in the release test. The release test described in this specification is a test comprising or consisting of adding liposomes (dispersion) encapsulating an aqueous solution containing a quenching substance and a fluorescent substance and a dispersion of a sample for evaluation to a properly pH-adjusted aqueous solution, incubating the resulting aqueous solution at 37° C. for 90 minutes or 30 minutes, and measuring the fluorescence intensity of the incubated aqueous solution. This method permits the measurement of the amount of the fluorescent substance which has been released from the liposomes. […] The release test will be described in more detail in the Examples. […]
EYPC (3000 nmol) dissolved in chloroform was measured and placed in a 10-mL eggplant-shaped flask, and the EYPC was made into thin film with a rotary evaporator. […] The concentration of the lipid was determined with the help of phospholipid C-test Wako, and then it was adjusted with MES Buffer so that phospholipid became 1.0 mmol/L. […]
The leakage was calculated assuming that the sheer dispersion of EYPC liposomes has 0% and the dispersion of EYPC liposomes incorporated with 30 μL of 10-fold diluted Triton-X100 has 100%. […]

SMILES: C[C@H](CCC(=O)O)[C@H]1CC[C@H]2[C@@H]3[C@@H](O)C[C@@H]4C[C@H](O)CC[C@]4(C)[C@H]3CC[C@]12C [Ursodeoxycholic acid]
- leakage, Alone, pH 5.0 (pH 5.0): 6.8 ± 0.3%
- leakage, Alone, pH 7.4 (pH 7.4): 3.6 ± 0.5%
